Laboratory results: PubChem BioAssay AID1259308 (NCATS, 2017)

Aim: 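Candidate targets for better recombinant protein yield in mammalian cells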 (primary screen)
Cell system: human HEK293 embryonic kidney cells stably expressing firefly luciferase (HEK-CMV-Luc2-Hygro)
Reagent: single siRNA against human genes, 0.8 pmol siRNA per well
Duration: 72 h
Measured: 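Reporter luminescence and viable-cell signal on separate replicate plates, given as percent of non-targeting control and median/MAD z-scores, plus per-cell luciferase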
Scale: total luciferase, z-score and total luciferase, % of control: higher = more reporter protein produced; luciferase per cell, z-score: higher = more reporter output per viable cell; viable cells, % of control: higher = more viable cells
Hit rule: 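Active when the median/MAD z-score for overall luciferase is greater than 3; a gene was taken forward for validation with new siRNAs if at least two of its three siRNAs passed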
Calls: active = raised luciferase; inactive = no rise
In all, the deposit lists about 59,000 reagents; shown is a part drawn at random. About 1,510 of them (2.6%) were called active. 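Calls use total luciferase alone and ignore viability, so some active siRNAs may act by altering cell number.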 A number with no mark means an inactive call. The numbers tell different reagents against one gene apart.

| Gene | reagent no. | total luciferase, z-score | total luciferase, % of control | luciferase per cell, z-score | viable cells, % of control |
| --- | --- | --- | --- | --- | --- |
| H2AZ2P1 (H2AZ2 pseudogene 1) | 1 | -1.31 | 55.8 | -1.42 | 90.6 |
| H2AZ2P1 (H2AZ2 pseudogene 1) | 2 | 0.185 | 85.6 | 0.512 | 83.5 |
| H2AZ2P1 (H2AZ2 pseudogene 1) | 3 | 0.195 | 85.8 | -0.453 | 108 |
| KRT16 (keratin 16) | 1 | -0.341 | 75.1 | -0.167 | 87.7 |
| KRT16 (keratin 16) | 2 | -0.505 | 71.8 | -0.299 | 86.9 |
| KRT16 (keratin 16) | 3 | 2.45 | 131 | 1.86 | 89.5 |
| IL27RA (interleukin 27 receptor subunit alpha) | 1 | -0.935 | 63.3 | 0.00699 | 70.6 |
| IL27RA (interleukin 27 receptor subunit alpha) | 2 | -1.41 | 53.9 | -1.22 | 82.9 |
| IL27RA (interleukin 27 receptor subunit alpha) | 3 | -0.742 | 67.1 | -0.929 | 95.8 |
| C1orf141 (chromosome 1 open reading frame 141) | 1 | -0.562 | 70.7 | 0.321 | 72.6 |
| C1orf141 (chromosome 1 open reading frame 141) | 2 | -0.143 | 79 | -0.0287 | 89 |
| C1orf141 (chromosome 1 open reading frame 141) | 3 | 1.23 | 106 | 0.875 | 94.4 |
| AJM1 (apical junction component 1 homolog) | 1 | 0.608 | 94 | 0.261 | 98.1 |
| AJM1 (apical junction component 1 homolog) | 2 | 0.545 | 92.7 | -0.0508 | 105 |
| AJM1 (apical junction component 1 homolog) | 3 | -1.9 | 44.1 | -2.36 | 91.8 |
| IFNA10 (interferon alpha 10) | 1 | 1.19 | 106 | 1.01 | 90.5 |
| IFNA10 (interferon alpha 10) | 2 | 1.01 | 102 | 0.579 | 97.8 |
| IFNA10 (interferon alpha 10) | 3 | 1.39 | 110 | 1.83 | 75.5 |
| STAG3L1 (STAG3 cohesin complex component like 1 (pseudogene)) | 1 | 1.22 | 106 | 1.36 | 82.9 |
| STAG3L1 (STAG3 cohesin complex component like 1 (pseudogene)) | 2 | -2 | 42.1 | -1.51 | 70 |
| STAG3L1 (STAG3 cohesin complex component like 1 (pseudogene)) | 3 | 1.13 | 104 | 0.524 | 102 |
| BAG1 (BAG cochaperone 1) | 1 | 1.25 | 107 | 0.953 | 92.8 |
| BAG1 (BAG cochaperone 1) | 2 | 2.24 | 126 | 2.71 | 69.2 |
| BAG1 (BAG cochaperone 1) | 3 | 0.0105 | 82.1 | -0.155 | 95.6 |
| RDM1 (RAD52 motif containing 1) | 1 | 1.69 | 115 | 1.09 | 96.9 |
| RDM1 (RAD52 motif containing 1) | 2 | -0.602 | 69.9 | -1.27 | 109 |
| RDM1 (RAD52 motif containing 1) | 3 | 1.79 | 118 | 2.15 | 74.6 |
| GPAT4 (glycerol-3-phosphate acyltransferase 4) | 1 | 0.531 | 92.5 | 1.41 | 71.3 |
| GPAT4 (glycerol-3-phosphate acyltransferase 4) | 2 | -0.449 | 73 | -0.0838 | 83.3 |
| GPAT4 (glycerol-3-phosphate acyltransferase 4) | 3 | -0.373 | 74.5 | -0.134 | 86.2 |
| NFIL3 (nuclear factor, interleukin 3 regulated) | 1 | 0.595 | 93.7 | 0.793 | 85 |
| NFIL3 (nuclear factor, interleukin 3 regulated) | 2 | 1.52 | 112 | 2.51 | 64.7 |
| NFIL3 (nuclear factor, interleukin 3 regulated) | 3 | 2.14 | 124 | 1.71 | 88.7 |
| IQCH (IQ motif containing H) | 1 | 0.788 | 97.6 | 0.89 | 86.2 |
| IQCH (IQ motif containing H) | 2 | 0.00936 | 82.1 | -0.683 | 110 |
| IQCH (IQ motif containing H) | 3 | 0.684 | 95.5 | 2.19 | 59.9 |
| WNT1 (Wnt family member 1) | 1 | -0.368 | 74.6 | 0.0476 | 82.3 |
| WNT1 (Wnt family member 1) | 2 | -0.491 | 72.1 | -0.378 | 89 |
| WNT1 (Wnt family member 1) | 3 | 0.941 | 101 | 0.494 | 98.7 |

5 entries from above, ordered by “viable cells, % of control”, ascending:
| Gene | reagent no. | total luciferase, z-score | total luciferase, % of control | luciferase per cell, z-score | viable cells, % of control |
| --- | --- | --- | --- | --- | --- |
| BAG1 (BAG cochaperone 1) | 2 | 2.24 | 126 | 2.71 | 69.2 |
| STAG3L1 (STAG3 cohesin complex component like 1 (pseudogene)) | 2 | -2 | 42.1 | -1.51 | 70 |
| BAG1 (BAG cochaperone 1) | 1 | 1.25 | 107 | 0.953 | 92.8 |
| BAG1 (BAG cochaperone 1) | 3 | 0.0105 | 82.1 | -0.155 | 95.6 |
| STAG3L1 (STAG3 cohesin complex component like 1 (pseudogene)) | 3 | 1.13 | 104 | 0.524 | 102 |
